{
  "sequences": {"note": "Chains of the proteins cited; added tags and fusions are not shown.", "UniProt P27695, whole entry, looked up": "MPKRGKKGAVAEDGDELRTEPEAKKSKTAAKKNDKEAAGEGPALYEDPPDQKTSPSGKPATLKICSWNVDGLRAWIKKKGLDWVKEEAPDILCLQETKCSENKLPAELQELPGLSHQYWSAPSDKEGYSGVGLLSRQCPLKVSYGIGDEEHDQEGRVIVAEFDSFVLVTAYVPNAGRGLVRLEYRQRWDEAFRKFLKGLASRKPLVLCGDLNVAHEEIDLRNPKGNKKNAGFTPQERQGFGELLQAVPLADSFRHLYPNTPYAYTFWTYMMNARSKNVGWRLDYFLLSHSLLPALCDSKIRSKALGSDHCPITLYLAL"},
  "source": "PubChem BioAssay AID2517",
  "about": "(National Center for Advancing Translational Sciences (NCATS), 2010)",
  "note": "Hit rate of the full screen: of about 350,000 compounds, about 1,200 (0.34%) were called active. Inconclusive results, whose numbers are uncertain, are shown with a selection of clear calls. Calls follow the shape of the dose curve; as a rule, active = well fitted inhibition curve with a large enough effect; inconclusive = small, poorly fitted or top-dose-only effect; inactive = no such curve, though single readings can be large or run the other way. A potency beside an inconclusive call is a rough fit, not a confirmed value. Potency is read from the fitted curve at half-maximal effect.",
  "data": [
    {"target": "DNA repair nuclease/redox regulator APEX1 (Homo sapiens) (UniProt P27695)", "assay": "qHTS Assay for Inhibitors of the Human Apurinic/apyrimidinic Endonuclease 1 (APE1); also: nearly all actives have a fitted effect of over 55% in size;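 as to activity change, negative = inhibition: plate controls were vehicle for no effect and reference inhibitor for full effect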", "details": "recombinant APE1, TAMRA/BHQ-2 abasic DNA cleavage fluorescence; activity change, negative = inhibition: at 65.8 µM (top of the series)", "in_short": "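APE1 at 0.75 nM preincubated 15 min at room temperature with compound. Reaction then started with 50 nM double-stranded THF-abasic substrate labelled with TAMRA/BHQ-2, and 525/598 nm fluorescence read kinetically. Activity taken as third-minus-first read difference, normalized to DMSO and NSC13755 controls.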", "values": [
      {"smiles": "CN1C(=O)C2(NCCc3c2[nH]c2ccccc32)c2ccccc21", "note": "(centres undefined)", "Potency": "inconclusive: 0.282 µM [inhibitor, single point]"},
      {"smiles": "Cc1ccc(F)cc1NC(=O)N1CCCN(c2ccc(C(F)(F)F)cn2)CC1", "Potency": "inconclusive: 14.1 µM [inhibitor, partial curve, poor fit]"},
      {"smiles": "CC(=O)N1CCN(C(=O)COc2ccc(Br)cc2)CC1", "Potency": "inconclusive: 39.8 µM [inhibitor, single point]"},
      {"smiles": "Cc1ccc(OCC(=O)N(C)CC(=O)NCc2ccco2)c(Br)c1", "Potency": "inconclusive: 18.9 µM [inhibitor, single point]"},
      {"smiles": "COc1ccc(N2CCN(S(=O)(=O)c3ccc(Br)s3)CC2)cc1", "Potency": "inconclusive: 3.55 µM [inhibitor, partial curve, poor fit]"},
      {"smiles": "Oc1c(C(c2cccs2)N2CCN(c3ccccc3)CC2)ccc2cccnc12", "note": "(centres undefined)", "activity change, negative = inhibition": "inactive: 1.82%"},
      {"smiles": "O=C1OCC2=C1C(c1ccc(F)cc1)Sc1ccccc1N2", "note": "(centres undefined)", "Potency": "inconclusive: 3.16 µM [inhibitor, partial curve, poor fit]"},
      {"smiles": "O=C(COc1ccccc1[N+](=O)[O-])Nc1cccnc1", "Potency": "inconclusive: 44.7 µM [inhibitor, single point]"},
      {"smiles": "Cc1cc(NC(=O)CCCC(=O)Nc2ccc(F)cc2)no1", "Potency": "inconclusive: 0.447 µM [inhibitor, full curve, poor fit]"},
      {"smiles": "CCCCc1c(C)nc2cc(-c3ccco3)[nH]n2c1=O", "Potency": "inconclusive: 3.16 µM [inhibitor, single point]"},
      {"smiles": "Cc1cccc(N(CC(=O)N2CCCCCC2)S(C)(=O)=O)c1", "Potency": "inconclusive: 23.8 µM [inhibitor, single point]"},
      {"smiles": "C#CCOCCOCCOCCNc1nc(N2CCN(C(=O)[C@H](CCC(=O)O)n3cc(C(N)Cc4ccc(O)cc4)nn3)CC2)nc(N2CCN(C(=O)[C@H](Cc3ccc(O)cc3)n3cc(C(N)CC(C)C)nn3)CC2)n1", "note": "(some centres undefined)", "Potency": "inconclusive: 7.08 µM [inhibitor, full curve]"},
      {"smiles": "COc1ccc(OC)c2c1C(=O)c1ccccc1C2=O", "Potency": "inconclusive: 44.7 µM [inhibitor, single point]"},
      {"smiles": "COCCn1c(SC2CCOC2=O)nc2ccccc2c1=O", "note": "(centres undefined)", "Potency": "inconclusive: 39.8 µM [inhibitor, single point]"},
      {"smiles": "COc1ccccc1C(=O)Nc1ccc2c(c1)nc(CCNC(=O)c1ccccc1)n2C", "Potency": "inconclusive: 7.08 µM [inhibitor, single point]"},
      {"smiles": "O=C(/C=C/c1ccc(O)c(O)c1)OC1C(O)CC(OC(=O)/C=C/c2ccc(O)c(O)c2)(C(=O)O)CC1O", "note": "(centres undefined)", "Potency": "inconclusive: 12.6 µM [inhibitor, partial curve]"},
      {"smiles": "C=CCn1c(COc2cccc(C)c2)nnc1SCC(=O)NC(=O)NCc1ccco1", "Potency": "inconclusive: 31.6 µM [inhibitor, partial curve]"},
      {"smiles": "CCCCN(CC)C(=O)Cc1ccc(Br)cc1", "Potency": "inconclusive: 0.282 µM [inhibitor, full curve, poor fit]"},
      {"smiles": "CSc1nsc(/C=C/Nc2ccc(C(=O)O)cc2)c1C#N", "Potency": "inconclusive: 17.8 µM [inhibitor, single point]"},
      {"smiles": "CC(C)(C)C(=O)CSc1ncccn1", "Potency": "inconclusive: 28.2 µM [inhibitor, single point]"},
      {"smiles": "Nc1c(N=Nc2ccc(-c3ccc(N=Nc4cc(S(=O)(=O)O)c5ccccc5c4N)cc3)cc2)cc(S(=O)(=O)O)c2ccccc12", "Potency": "active: 31.6 µM"},
      {"smiles": "O=C(NN=C1CCCC1)c1cc(Br)ccc1O", "activity change, negative = inhibition": "inactive: 8.94%"},
      {"smiles": "O=C(N/N=C/c1cc(Cl)cc([N+](=O)[O-])c1O)c1cc(-c2ccccn2)nc2ccccc12", "activity change, negative = inhibition": "inactive: 0.674%"},
      {"smiles": "CCc1ccc(N2NC(=O)/C(=C/C=C/c3ccco3)C2=O)cc1", "activity change, negative = inhibition": "inactive: 2.08%"},
      {"smiles": "O=C(NCc1ccc2[nH]c3c(c2c1)CCCC3)c1ccc(S(=O)(=O)N2CCCC2)cc1", "Potency": "inconclusive: 2.82 µM [inhibitor, single point]"},
      {"smiles": "CCCCCCOc1ccc(N2C(=O)CC(N3CCN(CCN=CC4C(=O)CC(C)(C)CC4=O)CC3)C2=O)cc1", "note": "(centres undefined)", "Potency": "inconclusive: 50.1 µM [inhibitor, partial curve, poor fit]"},
      {"smiles": "Cc1ccc(C)c(OCCC(=O)OCC(=O)N2CCN(S(=O)(=O)c3ccc(Cl)cc3)CC2)c1", "activity change, negative = inhibition": "inactive: 45.5%"},
      {"smiles": "Cn1nc(C(=O)Nc2nnc(C3CC3)s2)c2ccccc2c1=O", "Potency": "inconclusive: 25.1 µM [inhibitor, single point]"},
      {"smiles": "CCn1c(C)c(C)c2cc(C(=O)Nc3cccc(Cl)c3)ccc21", "activity change, negative = inhibition": "inactive: 7.43%"},
      {"smiles": "COC(=O)CSc1nnc2c3c4c(sc3nc(-n3nc(C)cc3C)n12)COC(C)(C)C4", "Potency": "inconclusive: 39.8 µM [inhibitor, single point]"},
      {"smiles": "O=[N+]([O-])c1ccc(Cl)c(-c2ccc(/C=N/c3c(-c4ccco4)nc4ccccn34)o2)c1", "activity change, negative = inhibition": "inactive: 4.73%"},
      {"smiles": "COc1ccc(CNC(=O)OCCN2CCN(S(=O)(=O)c3ccc(C)cc3)CCC2=O)cc1", "Potency": "inconclusive: 3.16 µM [inhibitor, single point]"},
      {"smiles": "CC(=O)c1coc2c1cc(O)c1ccccc12", "activity change, negative = inhibition": "inactive: -0.6%"},
      {"smiles": "Cc1ccc(N(C)C(=O)C2CCCN2S(=O)(=O)c2ccc3c(c2)n(C)c(=O)c(=O)n3C)cc1", "note": "(centres undefined)", "Potency": "inconclusive: 28.2 µM [inhibitor, single point]"},
      {"smiles": "Cc1cccc(N2CC(C(=O)Nc3nnc(SCC(=O)Nc4nccs4)s3)CC2=O)c1", "note": "(centres undefined)", "activity change, negative = inhibition": "inactive: 5.14%"},
      {"smiles": "O=c1[nH][nH]c2cc(=O)n(-c3cccc(C(F)(F)F)c3)nc12", "Potency": "inconclusive: 44.7 µM [inhibitor, single point]"},
      {"smiles": "C#CCOCCOCCOCCNc1nc(N2CCN(C(=O)C([C@@H](C)CC)n3cc(C(N)Cc4ccc(O)cc4)nn3)CC2)nc(N2CCN(C(=O)[C@H](CCC(=O)O)n3cc(C(N)CC(C)C)nn3)CC2)n1", "note": "(some centres undefined)", "Potency": "inconclusive: 7.94 µM [inhibitor, single point]"},
      {"smiles": "CC(=O)OC[C@@H]1O[C@H](CCO/N=C(\\C)CCN2CCCCc3nc(C)c(C)cc32)C=C[C@@H]1OC(C)=O", "Potency": "inconclusive: 7.08 µM [inhibitor, single point]"},
      {"smiles": "N#Cc1ccccc1S(=O)(=O)N1CCN(C(=O)c2ccc(-n3cncn3)c([N+](=O)[O-])c2)CC1", "activity change, negative = inhibition": "inactive: -7.57%"},
      {"smiles": "CCOc1cccc(CNCCO)c1OCc1ccc(Cl)cc1", "Potency": "inconclusive: 5.62 µM [inhibitor, full curve]"},
      {"smiles": "COc1cc(C2/C(=C(/O)c3ccccc3)C(=O)C(=O)N2c2ccccn2)ccc1O", "note": "(centres undefined)", "activity change, negative = inhibition": "inactive: -12%"},
      {"smiles": "O=C(O)CCC1CCCC1", "Potency": "inconclusive: 3.98 µM [inhibitor, partial curve]"},
      {"smiles": "COc1ccccc1CNC(=O)CSc1cc(=O)n(C)c2ccccc12", "Potency": "inconclusive: 44.7 µM [inhibitor, single point]"},
      {"smiles": "CCOC(=O)N1CCN(C(=O)c2c(O)c3cccc4c3n(c2=O)CC4)CC1", "Potency": "active: 39.8 µM"},
      {"smiles": "COc1ccccc1N(CCOc1ccccc1)S(=O)(=O)c1ccccc1", "Potency": "inconclusive: 21.2 µM [inhibitor, partial curve]"},
      {"smiles": "O=C1Cc2ccccc2Sc2cc(OCCCN3CCCCC3)ccc21", "Potency": "inconclusive: 5.01 µM [inhibitor, full curve, poor fit]"},
      {"smiles": "CCOC(=O)N1CCC(NC(=O)c2ccc(N3CCC4(CC3)OCCO4)c([N+](=O)[O-])c2)CC1", "Potency": "inconclusive: 1.12 µM [inhibitor, full curve, poor fit]"},
      {"smiles": "COc1ccc(C2CC(O)(c3ccccc3)Oc3cc(OC)c(OC)c(OC)c32)cc1", "note": "(centres undefined)", "Potency": "inconclusive: 35.5 µM [inhibitor, single point]"},
      {"smiles": "Cc1noc(C)c1COC(=O)c1ccc(N(C)C)cc1", "Potency": "inconclusive: 44.7 µM [inhibitor, single point]"},
      {"smiles": "COc1cc(/C=C/C(=O)OCC(=O)Nc2ccc(S(N)(=O)=O)cc2)ccc1O", "activity change, negative = inhibition": "inactive: -9.91%"},
      {"smiles": "NS(=O)(=O)c1cccc(NS(=O)(=O)c2ccc(/C=C/C(=O)OCC(=O)c3ccccc3)cc2)c1", "Potency": "inconclusive: 28.2 µM [inhibitor, single point]"},
      {"smiles": "Cc1ccc(C)n1C(Cc1ccccc1)C(=O)O", "note": "(centres undefined)", "Potency": "inconclusive: 39.8 µM [inhibitor, single point]"},
      {"smiles": "Cc1ccc(NS(=O)(=O)c2cc(NC(=O)c3ccc4c(c3)NC(=O)CS4)ccc2C)c(C)c1", "activity change, negative = inhibition": "inactive: -4.65%"},
      {"smiles": "CCOc1cc(C2C(C#N)=C(N)OC(C)=C2C(C)=O)cc(Br)c1O", "note": "(centres undefined)", "Potency": "inconclusive: 44.7 µM [inhibitor, single point]"},
      {"smiles": "CC1CCCN(C(=S)SCC(=O)c2cc(Br)cc(Br)c2O)C1", "note": "(centres undefined)", "activity change, negative = inhibition": "inactive: -7.21%"},
      {"smiles": "CC1=CC2=C(OC1N(C)C)c1cccc3cccc(c13)C2=O", "note": "(centres undefined)", "Potency": "inconclusive: 1.58 µM [inhibitor, full curve]"},
      {"smiles": "Cc1ccc(Cn2ccc(NC(=O)c3cc4nc(-c5ccco5)cc(C(F)(F)F)n4n3)n2)cc1", "activity change, negative = inhibition": "inactive: -1.84%"},
      {"smiles": "O=C(CN1C(=O)C2C3C=CC(C3)C2C1=O)Nc1ccc(S(=O)(=O)Nc2nccs2)cc1", "note": "(centres undefined)", "Potency": "inconclusive: 31.6 µM [inhibitor, single point]"},
      {"smiles": "CC(=O)c1ccc(NCC2COc3ccccc3O2)c([N+](=O)[O-])c1", "note": "(centres undefined)", "Potency": "inconclusive: 22.4 µM [inhibitor, single point]"},
      {"smiles": "Cc1noc(C)c1COC(=O)C1CCN(C(=O)c2ccc(Cl)cc2)CC1", "Potency": "inconclusive: 44.7 µM [inhibitor, single point]"},
      {"smiles": "Cc1ccc(S(=O)(=O)NNC(=O)c2snnc2C)cc1", "Potency": "inconclusive: 3.98 µM [inhibitor, single point]"},
      {"smiles": "COc1ccc(Cc2nnc(SCC(=O)NCCc3ccccc3)o2)cc1", "Potency": "inconclusive: 10 µM [inhibitor, single point]"},
      {"smiles": "CC1(C)Cc2c(sc3nc(C4CC4)n(N)c(=O)c23)CO1", "activity change, negative = inhibition": "inactive: 0.265%"},
      {"smiles": "O=C(COC(=O)/C=C/c1ccc(F)cc1)Nc1cc(C(F)(F)F)ccc1N1CCOCC1", "Potency": "inconclusive: 28.2 µM [inhibitor, partial curve, poor fit]"}
    ]}
  ]
}
